From article PMC7819943, “Rice protein-binding microarrays: a tool to detect cis-acting elements near promoter regions in rice” come the findings set out here.

The list shows a part of the results.

For this assay, the target named is T1, OsSMF1 (Oryza sativa, UniProt Q6ZLB0 1-436).
T1 sequence: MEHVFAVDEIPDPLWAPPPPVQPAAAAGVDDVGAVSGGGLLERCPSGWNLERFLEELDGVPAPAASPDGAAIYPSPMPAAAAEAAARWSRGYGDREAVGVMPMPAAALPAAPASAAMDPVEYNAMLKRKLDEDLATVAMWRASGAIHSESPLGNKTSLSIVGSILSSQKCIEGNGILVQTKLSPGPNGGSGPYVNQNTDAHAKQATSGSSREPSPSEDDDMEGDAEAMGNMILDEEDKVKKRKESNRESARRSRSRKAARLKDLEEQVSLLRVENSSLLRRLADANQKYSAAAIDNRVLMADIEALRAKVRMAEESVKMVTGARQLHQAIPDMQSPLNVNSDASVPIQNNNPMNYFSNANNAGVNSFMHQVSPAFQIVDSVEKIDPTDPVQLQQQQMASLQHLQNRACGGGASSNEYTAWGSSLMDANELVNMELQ
The assay can be described thus: protein-binding microarray (RPBM); PBS, 2% BSA, 51.3 ng/ul salmon testes DNA, 50 uM zinc acetate, 200 nM TF, 25 C, 1 h; high values mean tight binding. To be noted: protein: recombinant; tags: N-terminal polyhistidine and DsRed monomer fusion (pET32a); chain copies: 2; label: CyDye5-dUTP incorporated in the synthesized complementary strand; 3' TTTTT single-stranded linker to array surface; dsDNA, one strand shown. In outline: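 In PBS with 2% BSA, salmon testes DNA and 50 µM zinc acetate, 200 nM protein was incubated on a custom Agilent array at 25 °C for 1 h and then washed off. The array had been made double-stranded by primer extension with Cy5-dUTP and blocked with 2% BSA. The proteins were transcription factors fused N-terminally to polyhistidine and DsRed, expressed in E. coli BL21-CodonPlus and purified on Ni–NTA. The binding signal is per-feature fluorescence intensity (arbitrary units) from an Axon 4000B scanner.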
With “GCTCCGCTCCCGCCGGCCATCTTGGCCACTTCCACGCCCGCGGAGTCACCTAGTGCAG”, the binding signal is 3310 fluorescence intensity (a.u.). Regarding “CTACTGCAGCCTCTGAGAATTACAGAAAGCGAAGGTATGTCGGAGTCACCTAGTGCAG”, the binding signal was 35400 fluorescence intensity (a.u.).

On to “AATTGGAACATTCATTTCTGACACACGGAACATTTAATTTCGGAGTCACCTAGTGCAG”, for which the binding signal is 3520 fluorescence intensity (a.u.). Take “TGAATTGGTAAGGCCGAACAGGCCTGTCAATCCAGCCCATCGGAGTCACCTAGTGCAG”: the binding signal was 22900 fluorescence intensity (a.u.). As to “GCGGCGGCACACCGCCGGTGACTCGCCGCCGGTGACGACGCGGAGTCACCTAGTGCAG”, the binding signal is 4280 fluorescence intensity (a.u.).

On to “TTACCTGCTGACCAACCGACCTTGCAAAGGAGGCTTATATCGGAGTCACCTAGTGCAG”, for which the binding signal was 3610 fluorescence intensity (a.u.). As for “AATGTAGGATGATGTGGCGGTTTATAACATCAAGTGTACTCGGAGTCACCTAGTGCAG”, the figure is 8110 fluorescence intensity (a.u.); as for “CCCCGCTGCTTGTCACGCTCTCGTTGGTCGATCACTCCATCGGAGTCACCTAGTGCAG”, 3250 fluorescence intensity (a.u.); as for “TGAGTGGTTTTGTAAGTGGTTTAGGCTGATGTGGCAGGTTCGGAGTCACCTAGTGCAG”, 15400 fluorescence intensity (a.u.).

“CTTACTACTTGTGCTACCCTAGGGCAGCTCAAAATAGTGGCGGAGTCACCTAGTGCAG”: the binding signal is 24100 fluorescence intensity (a.u.). On to “AGTCGTACTTTCTACCAGCATTTGCAGCAGCTGTGAAATGCGGAGTCACCTAGTGCAG”, for which the binding signal is 29900 fluorescence intensity (a.u.). As to “CATTATCTGGTTGATGATGGTGCACGTGTGTATGCATTAACGGAGTCACCTAGTGCAG”, the binding signal is 4760 fluorescence intensity (a.u.). Take “CGCCGTGGAAGAATATGATCACCGGGAACGGCTCCGCCGCCGGAGTCACCTAGTGCAG”: the binding signal was 12000 fluorescence intensity (a.u.). Consider “TCGTTCACTTCCCGATTTCTATTCAGTCTAGTCACACCGTCGGAGTCACCTAGTGCAG”, for which the binding signal is 5510 fluorescence intensity (a.u.). In the case of “CGAACATCTGGCGGTCGACGCGGCGGGACGCGATGGCGGCCGGAGTCACCTAGTGCAG”, the binding signal is 3140 fluorescence intensity (a.u.). As for “CTATTGCAAATTGCAATGCTGTATATGCACTTCATTAGAACGGAGTCACCTAGTGCAG”, the figure is 54100 fluorescence intensity (a.u.); as for “GTTTCTATTATTTCATGGCTTGATGGGGACTCCATTGGTGCGGAGTCACCTAGTGCAG”, 3350 fluorescence intensity (a.u.); as for “AAACCGGCTGTCTGCTCATCCATTCAACATGGAGCCTTGCCGGAGTCACCTAGTGCAG”, 3230 fluorescence intensity (a.u.). On to “ATCATGGCCAATCCACACTTGTTGTTGTTCTTTCCCTTCGCGGAGTCACCTAGTGCAG”, for which the binding signal is 3180 fluorescence intensity (a.u.). On to “CATCCTAGTGTCCAGATTCATTGTACTAGGATGTGTCACACGGAGTCACCTAGTGCAG”, for which the binding signal was 4410 fluorescence intensity (a.u.). Consider “CATCTGAAATTGCCCTTGCTATTTCAGTTAGTACTATTTCCGGAGTCACCTAGTGCAG”, for which the binding signal was 3340 fluorescence intensity (a.u.). As for “ATTGACATAGGCCAAAAGGGCAGCGTGGTGACGCGGTCGACGGAGTCACCTAGTGCAG”, the binding signal is 5330 fluorescence intensity (a.u.). The same measure for “TATCCTTGAGGGATTCCATTACAAATCTGACGCAACCAATCGGAGTCACCTAGTGCAG”: 4560 fluorescence intensity (a.u.); for “AGCCAGTTAATTATGACATCACAACCCATCTAAACACATACGGAGTCACCTAGTGCAG”: 4400 fluorescence intensity (a.u.). Turning to “GCATGTGTGCTGTAGTGCTCGTCTTTCCGTCTCCTCCATCCGGAGTCACCTAGTGCAG”, the binding signal is 21700 fluorescence intensity (a.u.). Take “CTTGTATTTTATACACGATGAGCGCAGGCCAACGCATTGCCGGAGTCACCTAGTGCAG”: the binding signal is 3490 fluorescence intensity (a.u.). As for “ATTACTCCGTACGCAGCATTCTCCCTCGTGTCATTTTCGTCGGAGTCACCTAGTGCAG”, the figure is 4540 fluorescence intensity (a.u.); as for “CGCGTCGACGGCGGGGATGGGGACGGGTTGGTTGATCTTTCGGAGTCACCTAGTGCAG”, 4450 fluorescence intensity (a.u.). For the sequence “CACTGCTATCACTATACAACAGCTACTGCTACTATACTAGCGGAGTCACCTAGTGCAG”, the binding signal is 4400 fluorescence intensity (a.u.). Consider “GCGTGCCGTGCCGTGCCGGCCCGCTACAGTAGCCGTGCCGCGGAGTCACCTAGTGCAG”, for which the binding signal was 3290 fluorescence intensity (a.u.). Regarding “CTCTAGCCGACGTTCACATCAGCAAGCATGCCGGAACTATCGGAGTCACCTAGTGCAG”, the binding signal is 3260 fluorescence intensity (a.u.). For the sequence “AACTAGGCTCTCACGTCAAGTCACAGGACGCCGGGCGCAACGGAGTCACCTAGTGCAG”, the binding signal is 3320 fluorescence intensity (a.u.). Turning to “AGATCAAACTATAGTCATCGATTAGTAGATACCAACGGTGCGGAGTCACCTAGTGCAG”, the binding signal is 3450 fluorescence intensity (a.u.). The same measure for “ACGGAGGTATGTACGTCGTGAAACGTCAAGCGTCCTCGCGCGGAGTCACCTAGTGCAG”: 3580 fluorescence intensity (a.u.); for “GAAAGACAGATGTCGGCATGAATATCAACACGTACGCATGCGGAGTCACCTAGTGCAG”: 5270 fluorescence intensity (a.u.). Take “CATGTGTGCAGTGTTCATTGTGTTGGAATAGTTGTAGCAGCGGAGTCACCTAGTGCAG”: the binding signal was 21500 fluorescence intensity (a.u.). Regarding “ATTTTCACGTGGAAATCGATTAATTGCCGGTTGAGTGTTTCGGAGTCACCTAGTGCAG”, the binding signal was 3270 fluorescence intensity (a.u.). In the case of “ACCCATCCAAACACCCATCCGCCGCCGCTGGCTGAACTCGCGGAGTCACCTAGTGCAG”, the binding signal was 3150 fluorescence intensity (a.u.). On to “AACCAATCACTCGATATATGACTAATTCTTCTGGAGTTGTCGGAGTCACCTAGTGCAG”, for which the binding signal is 3370 fluorescence intensity (a.u.).

“TAATCCTGTGTCCGTCATTGAGCATGTGTGTATGAATCAACGGAGTCACCTAGTGCAG”: the binding signal is 3450 fluorescence intensity (a.u.). With “TCTTCCGCCGCACTTTTAGATCATCACACATCACCGAGATCGGAGTCACCTAGTGCAG”, the binding signal is 4130 fluorescence intensity (a.u.). Turning to “CGAGTAACTTCTTTTGGATGATGACTCTGAAAATTTTGAGCGGAGTCACCTAGTGCAG”, the binding signal was 4680 fluorescence intensity (a.u.).
